Data set [1] deals with NUCKS1, intact phosphorylated (UniProt Q9H1E3). The experiment in a line: competition EMSA. Conditions: 100x unlabelled competitor, 20 mM Tris-HCl pH 7.5, 100 mM KCl, 0.2% NP-40, 20% glycerol, 2 mM DTT, 50 ng (pure protein) or 1 ug (extract) salmon sperm DNA, 25 nM probe, 15 min at 37 C, recombinant protein, protein details: His6.
The target in data set [2] is T1, NUCKS1 in U2OS nuclear extract (UniProt Q9H1E3).
T1 sequence (looked up, limits assumed): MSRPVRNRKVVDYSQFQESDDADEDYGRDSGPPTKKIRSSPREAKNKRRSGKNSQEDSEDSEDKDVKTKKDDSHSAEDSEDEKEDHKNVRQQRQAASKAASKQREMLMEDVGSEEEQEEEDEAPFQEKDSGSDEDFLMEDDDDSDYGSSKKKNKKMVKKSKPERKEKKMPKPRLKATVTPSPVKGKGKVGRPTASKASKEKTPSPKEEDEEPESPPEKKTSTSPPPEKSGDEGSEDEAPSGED
The experiment in a line: EMSA. The conditions noted are these: WT U2OS nuclear extract shows much higher affinity than NUCKS1-KO extract, 1 ug salmon sperm DNA; 20 mM Tris-HCl pH 7.5, 100 mM KCl, 0.2% NP-40, 20% glycerol, 2 mM DTT, 50 ng (pure protein) or 1 ug (extract) salmon sperm DNA, 25 nM probe, 15 min at 37 C; protein in an extract; label: IRDye-800.

Data set [3] deals with NUCKS1, intact phosphorylated (UniProt Q9H1E3). The experiment in a line: EMSA. Conditions: phosphorylated, 10.24-2500 nM protein, 25 nM probe, low affinity, 20 mM Tris-HCl pH 7.5, 100 mM KCl, 0.2% NP-40, 20% glycerol, 2 mM DTT, 50 ng (pure protein) or 1 ug (extract) salmon sperm DNA, 15 min at 37 C, recombinant protein, protein details: His6, label: IRDye-800.

Construct, isoform or probe ends are uncertain for at least one entry. For some of these results: No signal at the amounts used counts as a negative. For some of these results: At least one verdict was read from the data and is not stated in words by the source. For some of these results: The comparison behind a weaker result is the experiment's own reference, which may not be listed here. For some of these results: Where cells or extracts were used, other partners may take part. For some of these results: Tags and fusion partners may be left off the protein sequences shown.

As to “GCCGACCAGTCCCGCTCCCGCGGGGGGTTGTGGGTATCTCGAAAAAAAATAAAGCTGCA (double strand)”, the binding result in data set [1] is “no binding”.

Regarding “GCCGACCAGTCCCGCTCCCGCGGGGGGTTGTGGGTATCTCGAAGGCGGGTAAAGCTGCA (double strand) [SKP2 promoter WT probe, unlabelled competitor]”, the binding result in data set [1] is recorded as “binds”.

As for “GCCGACCAGTCCCGCTCCCGCGGGGGGTTGTGGGTATCTCGAAGGCGGGTAAAGCTGCA (double strand) [SKP2 promoter WT probe]”, the binding result in data set [2] was “binds”; in data set [3] it was “binds more weakly”.

These data come from PMC8630071, “The NUCKS1-SKP2-p21/p27 axis controls S phase entry”.
